Paper PMC5413979 (Nature Communications, 2017)

Biological target: T1, VcINDY (Vibrio cholerae, UniProt Q9KNE0)
T1 construct: gene VC_A0025
Test: biochemical

Question: How did the inhibition at 95000 µM turn out when O=C(O)CC(O)(CC(=O)O)C(=O)O [citrate] was run?
Answer: < 20%
